These results are taken from PubChem BioAssay AID1487 (National Center for Advancing Translational Sciences (NCATS), 2009).

The list shows a part of the results. The main result of the screen is listed elsewhere. These columns were measured beside it and carry no call. The list favours compounds with an active or inconclusive main result. Potencies come from curve fits of mixed quality, noted in brackets.

The test in a line: qHTS Assay for Modulators of Lamin A Splicing. As to conditions: HeLa LMNA splicing GFP/RFP minigene ratio, 48 h. In outline: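 S3 HeLa stable clones carrying a lamin A-EGFP splicing minigene plus DsRed2 were seeded at 600 cells/well in Opti-MEM with 2% FBS, pin-dosed and incubated 48 h at 37°C. Acumen cytometry (488 nm) gave the GFP/RFP total-intensity ratio.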
The mark [1] stands for this setting: measured here: RFP viability control channel.
[2] abbreviates: measured here: GFP splicing reporter channel.

For `CC1=CC2=NC(=O)/C(=C\c3cn(C)c4ccccc34)C(=N)N2O1`, the AC50 under setting [1] is 0.501 µM [falling, full curve, poor fit].

As to `Cc1ccccc1NC(=O)c1nn(-c2ccc(F)c(F)c2)ccc1=O`, under setting [2], the AC50 is 0.0178 µM [rising, full curve, poor fit].

Consider `Cc1ccc(Cn2c(CN3CCC(C(=O)NCCc4ccccc4)CC3)cc3ccccc32)cc1`, for which the AC50 under setting [2] was 35.5 µM [rising, single point].

In the case of `CCNS(=O)(=O)c1ccc(NC(=O)Nc2cccc(C(F)(F)F)c2)cc1`, the AC50 was 10 µM [rising, partial curve, poor fit] under setting [2] and 12.6 µM [rising, single point] under setting [1].

For the compound `CCOCC(=O)Nc1cc(Cl)c(OC)cc1OC`, under setting [2], the AC50 is 6.31 µM [rising, partial curve, poor fit].

On to `COc1ccc(NC(=O)CNC(=O)c2c(C)nn(C)c2Cl)cc1`, for which the AC50 under setting [2] was 3.16 µM [rising, single point].

Regarding `Cc1ccc(C(=O)Nc2ccccc2C(=O)N2CCOCC2)cc1[N+](=O)[O-]`, the AC50 under setting [1] is 4.47 µM [rising, single point].

`Cc1nn(-c2ccc(N3CCCC3)nn2)c(C)c1CCC(=O)Nc1ccc(F)c(Cl)c1`: the half-maximal activity concentration (AC50) was 0.891 µM [falling, partial curve, poor fit] under setting [2] and 0.794 µM [falling, full curve] under setting [1].

As for `CCCCC/C(C=O)=C/c1ccccc1`, the half-maximal activity concentration (AC50) reads like this: under setting [2], 0.00447 µM [falling, full curve, poor fit]; under setting [1], 0.355 µM [falling, full curve, poor fit].

`COc1cccc(Nc2ncc3nc(-c4ccc(Cl)cc4)c(=O)n(C[C@H]4CCCO4)c3n2)c1`: the concentration at half-maximal activity (AC50) under setting [2] is 3.16 µM [falling, full curve].

As to `Cc1ccc2oc(=O)c3cc(C(=O)Nc4cc(-c5cccc(F)c5)no4)sc3c2c1`, the AC50 under setting [1] was 3.98 µM [rising, single point].

`Cc1nn(Cc2ccc(Cl)cc2)c(C)c1NC(=O)CSc1n[nH]c(C)c1[N+](=O)[O-]`: under setting [1], the AC50 is 35.5 µM [rising, single point].

On to `N#C/C(=N\Nc1cccc2ccccc12)c1nnc2n1CCCCC2`, for which the AC50 under setting [1] is 0.0891 µM [rising, full curve, poor fit].

Turning to `COc1cc(Cl)ccc1NC(=O)COc1ccccc1C(=O)N1CCN(c2ccc(O)cc2)CC1`, the concentration at half-maximal activity (AC50) under setting [1] is 11.2 µM [rising, partial curve].

Regarding `CCOc1cc(/C=N/NC(=O)Cn2nc([N+](=O)[O-])cc2C)ccc1OCc1ccc(F)cc1`, under setting [1], the concentration at half-maximal activity (AC50) is 0.0355 µM [falling, single point].

Consider `Cc1cc(C)c2nc(N(Cc3cccnc3)C(=O)c3cccs3)sc2c1`, for which the AC50 under setting [2] was 0.794 µM [falling, full curve, poor fit].

Regarding `CN(C)Cc1cc(C(C)(C)C)c(O)c(C(C)(C)C)c1`, the AC50 under setting [1] was 12.6 µM [rising, single point].

Take `COc1cccc(C2=NOC(C(=O)Nc3cccc(C(C)=O)c3)C2)c1OC` (stereo not given): the concentration at half-maximal activity (AC50) was 11.2 µM [rising, single point] under setting [2] and 14.1 µM [rising, single point] under setting [1].

With `COc1ccc2[nH]cc(CCNc3ccnc(-c4ccc(N(C)C)cc4)n3)c2c1`, the half-maximal activity concentration (AC50) runs as follows: under setting [2], 0.631 µM [falling, full curve]; under setting [1], 0.631 µM [falling, full curve].

For `S=C(NCc1ccncc1)Nc1ccc(Cl)cc1Cl`, the AC50 under setting [1] is 35.5 µM [rising, single point].

In the case of `CCn1cc(S(=O)(=O)c2ccccc2)c(=O)c2cc(F)c(N3CCN(c4ccccc4)CC3)cc21`, the AC50 under setting [2] was 0.282 µM [falling, single point].

For the compound `CCOc1ccc(OCc2ccc(C(=O)NCc3ccncc3)o2)cc1`, under setting [1], the AC50 is 11.2 µM [rising, partial curve].

In the case of `C#C[C@]1(OC(C)=O)CC[C@H]2[C@@H]3CCC4=C[C@@H](OC(C)=O)CC[C@@H]4[C@H]3CC[C@@]21C`, under setting [2], the AC50 was 35.5 µM [rising, single point].

Regarding `Cc1cc(C)n2nc(SCC(=O)N(CC(C)C)c3c(N)n(CC(C)C)c(=O)[nH]c3=O)nc2n1`, under setting [1], the AC50 was 35.5 µM [rising, single point].

Take `Cc1c(Cl)cccc1NCC(=O)Nc1ccc(Cl)cc1F`: the AC50 is, setting by setting: under setting [2], 22.4 µM [rising, single point]; under setting [1], 14.1 µM [rising, partial curve].

Turning to `COc1ccc(OCC(=O)NCc2ccc3c(c2)CCN3C(=O)c2ccc(F)cc2)cc1`, the half-maximal activity concentration (AC50) under setting [2] is 5.62 µM [rising, single point].

Take `CCc1ccc(-c2nn(CC(=O)NCc3ccccc3)c3c2cnc2ccc(F)cc23)cc1`: the AC50 under setting [1] was 39.8 µM [falling, partial curve, poor fit].

As for `Cc1cc(C)c(S(=O)(=O)Nc2ccc(-c3ccc(N4CCCCCC4)nn3)cc2)c(C)c1`, the AC50 under setting [2] was 0.126 µM [falling, partial curve, poor fit].

For `COc1cc(C(=O)Nc2ccc(S(=O)(=O)NC(C)C)cc2)cc(OC)c1OC`, the AC50 under setting [1] is 35.5 µM [rising, single point].

Consider `Cc1cccc(C(=O)NC(=S)NNC(=O)c2ccccc2Cl)c1`, for which the AC50 reads like this: under setting [2], 11.2 µM [rising, partial curve]; under setting [1], 22.4 µM [rising, single point].

Turning to `CN(CC(=O)NCc1ccccc1)S(=O)(=O)c1ccc2[nH]c3c(c2c1)CCCC3`, the AC50 under setting [2] is 35.5 µM [falling, partial curve] and the AC50 under setting [1] was 11.2 µM [falling, partial curve].

In the case of `Cc1cc(NC(=O)CSc2nnnn2-c2ccccc2)no1`, under setting [2], the AC50 is 25.1 µM [falling, single point].

As for `COC(=O)c1ccc(OCC2c3cc(OC)c(OC)cc3CCN2C(=O)Cc2ccccc2)cc1` (stereo not given), the AC50 under setting [2] is 2.82 µM [falling, partial curve, poor fit].

`CN1CCc2nc3sc(C(=O)C45CC6CC(CC(C6)C4)C5)c(N)c3cc2C1`: the AC50 is, setting by setting: under setting [2], 35.5 µM [falling, single point]; under setting [1], 35.5 µM [falling, single point].

For `CCC(=O)N1c2ccccc2[C@@H](N(C(C)=O)c2ccccc2)C[C@H]1C`, under setting [1], the AC50 is 31.6 µM [rising, single point].

Take `CCN(Cc1ccccc1)S(=O)(=O)c1cc(C(=O)Nc2cc(Cl)cc(Cl)c2)ccc1F`: the AC50 under setting [1] is 35.5 µM [rising, single point].
